This is an account of results in doi:10.1101/2025.11.01.685922.

Sequences of proteins named here, by UniProt entry; tags and fusion partners are left off. A change or cut given only in a name is not applied to a line headed by its entry.
UniProt Q9DBC7: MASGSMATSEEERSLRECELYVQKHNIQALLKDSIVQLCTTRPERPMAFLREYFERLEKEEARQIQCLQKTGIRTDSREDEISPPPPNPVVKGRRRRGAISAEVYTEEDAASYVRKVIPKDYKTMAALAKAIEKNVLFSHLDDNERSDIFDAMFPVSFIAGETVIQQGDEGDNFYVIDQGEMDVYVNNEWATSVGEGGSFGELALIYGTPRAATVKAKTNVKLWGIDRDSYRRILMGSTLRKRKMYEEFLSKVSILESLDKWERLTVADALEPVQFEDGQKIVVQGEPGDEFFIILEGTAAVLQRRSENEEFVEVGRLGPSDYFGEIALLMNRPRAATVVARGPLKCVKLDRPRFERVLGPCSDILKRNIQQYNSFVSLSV
UniProt P10644: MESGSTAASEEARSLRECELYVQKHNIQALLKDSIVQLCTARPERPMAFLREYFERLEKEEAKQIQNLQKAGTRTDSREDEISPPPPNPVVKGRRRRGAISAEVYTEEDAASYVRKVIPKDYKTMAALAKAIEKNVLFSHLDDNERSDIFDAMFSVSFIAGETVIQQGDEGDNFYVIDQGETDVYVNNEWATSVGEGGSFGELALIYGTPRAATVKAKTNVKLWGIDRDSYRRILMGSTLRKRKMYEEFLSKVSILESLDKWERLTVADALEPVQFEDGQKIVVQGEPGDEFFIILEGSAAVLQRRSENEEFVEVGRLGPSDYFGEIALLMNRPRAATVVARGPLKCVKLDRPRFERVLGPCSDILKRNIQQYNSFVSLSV

Common to all, as to test: co-IP
Assay [1] concerns the target FAM134B-V5 ΔINT (mouse) (UniProt Q8VE91).
The target in assay [2] is FAM134B-V5 mtLIR (mutant LIR) (mouse) (UniProt Q8VE91).
The target of assay [3] is T1, FAM134B-V5, wild-type full-length (FL), stably expressed in PDAC cells (mouse) (UniProt Q8VE91).
T1 sequence: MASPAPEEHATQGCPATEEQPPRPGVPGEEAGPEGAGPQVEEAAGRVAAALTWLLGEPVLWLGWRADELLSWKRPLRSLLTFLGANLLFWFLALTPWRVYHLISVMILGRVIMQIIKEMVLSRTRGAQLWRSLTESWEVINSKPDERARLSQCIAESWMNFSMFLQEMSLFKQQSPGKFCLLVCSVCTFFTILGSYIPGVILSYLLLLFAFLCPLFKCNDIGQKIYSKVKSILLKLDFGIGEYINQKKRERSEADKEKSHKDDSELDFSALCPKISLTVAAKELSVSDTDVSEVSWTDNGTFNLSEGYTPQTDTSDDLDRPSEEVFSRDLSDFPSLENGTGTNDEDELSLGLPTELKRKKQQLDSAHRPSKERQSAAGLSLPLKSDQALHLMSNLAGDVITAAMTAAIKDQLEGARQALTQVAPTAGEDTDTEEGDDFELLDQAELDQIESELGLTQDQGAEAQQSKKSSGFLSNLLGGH

Results are given in words; binding and its absence hold for the method and conditions named. Binding seen in cells or lysates may run through a third protein. A result given as binding can be weak or reduced; the word gives no strength. For part of these data: Where a sequence is shown, tags or fusion partners need not be part of it.

With “PRKAR1A, endogenous in PDAC cells (from UniProt Q9DBC7 1-381)”, the binding entry in assay [1] and in assay [2] was “binds” each time.
For the substance “GFP-PRKAR1A mtPS (PKA-binding deficient point mutant) (from UniProt P10644)”, in assay [3], the binding entry is “binds”.
